PubChem BioAssay AID504834 (National Center for Advancing Translational Sciences (NCATS), 2011)
Out of some 320,000 compounds screened, about 22,000 (6.9%) were called active. This list was built around the results that the source calls inconclusive (neither active nor inactive); the mix of calls is not that of the screen. Calls come from the whole dose curve; as a rule, active = well fitted inhibition curve with a large enough effect; inconclusive = small, poorly fitted or top-dose-only effect, or another doubt; inactive = no such curve, though single readings can be large or run the other way. Potencies beside an inconclusive call are fits to weak or partial responses and may not hold up.
% is set by controls: 0 for no effect and ±100 for the full control effect; potency is the fitted concentration of half-maximal effect.

Assay: Primary qHTS for delayed death inhibitors of the malarial parasite plastid, 96 hour incubation
Conditions: P. falciparum luciferase reporter growth; series mostly up to 28.7 µM; activity change, negative = inhibition: at the top concentration
Procedure, shortened: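 96 h incubation, 37 C, 5% CO2, of luciferase-reporter P. falciparum-infected RBCs (2% hematocrit, 0.05% parasitemia final) with test compounds; endpoint luminescence.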
With CN(C)c1cc[n+](CC(=O)c2ccc(Br)cc2)cc1 the Potency was inconclusive: 0.329 µM [inhibitor, full curve, poor fit]. In the case of Cc1cccc(-n2c(O)c(/C=C3/C(c4ccccc4)=Nc4ccccc43)c(=O)[nH]c2=O)c1, the Potency is reported as active: 11.7 µM. With COCC(=O)N1CCc2ccc(NC(=O)c3ccccc3Cl)cc2C1 the “activity change, negative = inhibition” value was inactive: -37.8%. In the case of COc1ccc(NC(=O)CN(C)C(=O)CCCc2nc3ccccc3c(=O)[nH]2)cc1, the Potency is reported as inconclusive: 10.4 µM [inhibitor, partial curve, poor fit]. With CCOC(=O)Cc1csc(NC(=O)CSc2ccc(Br)cc2)n1 the Potency was active: 2.62 µM. In the case of CNc1nc(SC(C)C(=O)Nc2ccc(Cl)c(Cl)c2)nc(N2CCOCC2)n1 (configuration not stated), the “activity change, negative = inhibition” value is reported as inactive: 36.9%. In the case of O=C(CSc1nccn1-c1cccc(Cl)c1)NO, the Potency is reported as inconclusive: 13.1 µM [inhibitor, single point]. With O=C(Nc1cccc(Cl)c1)c1ccc(NCCCN2CCOCC2)c([N+](=O)[O-])c1 the “activity change, negative = inhibition” value was inactive: 134%. In the case of C1CC1Cc1noc(CN2CCN(C3C4CC5CC(C4)CC3C5)CC2)n1 (configuration not stated), the Potency is reported as active: 13.1 µM. For CCc1ccc(NC(=O)[C@H](NC(=O)[C@@H]2Cc3ccccc3CN2)c2ccccc2)cc1, the Potency was inconclusive: 18.5 µM [inhibitor, single point]. In the case of COc1ccc(CNC(=O)C2CCN(S(=O)(=O)c3ccc4nc5c(c(C(=O)O)c4c3)CC(C)CC5)CC2)cc1 (configuration not stated), the Potency is reported as inconclusive: 10.4 µM [inhibitor, partial curve]. With CCOc1ccc(C(=O)Nc2nnc(NC(=S)Nc3ccccc3)s2)cc1 the Potency was inconclusive: 0.522 µM [inhibitor, full curve, poor fit]. With CN(C)C(=S)NC(=NCc1ccc([N+](=O)[O-])cc1)c1ccccc1 the “activity change, negative = inhibition” value was inactive: 32.9%. For COc1ccc(S(=O)(=O)N2CCN(C(=S)NC3CCCCC3)CC2)cc1, the “activity change, negative = inhibition” value was inactive: 6.01%. In the case of Cc1c(NC(=O)C(C)OC(=O)c2ncc(Cl)c(Cl)c2Cl)c(=O)n(-c2ccccc2)n1C (configuration not stated), the “activity change, negative = inhibition” value is reported as inactive: 3.34%. With CCOC(=O)c1sc(NC(=O)CCC(=O)O)nc1C the “activity change, negative = inhibition” value was inactive: 9.93%. With CCCCC(CC)COC1(c2ccccc2)OC(=O)c2ccccc21 (configuration not stated) the Potency was active: 8.28 µM. With CC(C)=CC(=O)Nc1ccc(Cl)cc1 the Potency was inconclusive: 14.7 µM [inhibitor, single point]. For Cc1ccc(C(=O)CSc2n[nH]c(-c3ccco3)n2)cc1C, the Potency was inconclusive: 9.28 µM [inhibitor, partial curve]. In the case of NNC(=S)Nc1ccccc1Cl, the Potency is reported as inconclusive: 2.94 µM [inhibitor, single point]. For CCOc1cc(CNCCO)cc(Br)c1OCc1cccs1, the Potency was inconclusive: 18.5 µM [inhibitor, single point]. In the case of Cc1ccc(C(=O)O)cc1Nc1ncnc2sc3c(c12)CCC3, the “activity change, negative = inhibition” value is reported as inactive: 14.1%. For C=C(C)COc1ccc(-c2nc(N)nc(C(F)(F)F)c2-c2ccc(OC)cc2)c(O)c1, the Potency was active: 2.08 µM. In the case of CCOc1ccc(N(CC)S(=O)(=O)c2cccc3nsnc23)cc1, the Potency is reported as active: 6.57 µM. For Fc1ccc(-c2cnc3n2CCCCC3)cc1, the Potency was inconclusive: 18.5 µM [inhibitor, single point]. For O=C(NCc1nnc(SCc2ccccc2)n1-c1ccccc1)C12CC3CC(CC(C3)C1)C2, the Potency was inconclusive: 1.65 µM [inhibitor, full curve, poor fit]. For Cc1cccc(C(=O)O[C@@H]2[C@H](Cc3ccccc3)NS(=O)(=O)[C@H]3C[C@@H]4C=C[C@]23O4)c1, the Potency was active: 9.28 µM. For CCc1ccc(Oc2coc3cc(OCC(=O)Nc4cc(C)ccc4C)ccc3c2=O)cc1, the Potency was inconclusive: 4.15 µM [inhibitor, single point]. For COc1cccc(Nc2n[nH]c(=S)s2)c1, the “activity change, negative = inhibition” value was inactive: -0.373%. With O=C(NCc1ccccc1Cl)C1CCCN(c2ncnc3c2nc2n3CCCCC2)C1 (configuration not stated) the Potency was inconclusive: 18.5 µM [inhibitor, single point]. In the case of COc1ccc(CC(=O)Nc2ccc(C(=O)Nc3nccs3)cc2)cc1OC, the “activity change, negative = inhibition” value is reported as inactive: 18.3%. In the case of COC(=O)CC(NS(=O)(=O)c1cccs1)c1cccc2ccccc12 (configuration not stated), the Potency is reported as inconclusive: 6.57 µM [inhibitor, partial curve]. With COc1ccccc1-c1sc2cc3c(cc2c1-c1ccc2c(c1)OCO2)OCO3 the Potency was inconclusive: 11.7 µM [inhibitor, partial curve]. In the case of Cc1ccc2c(c1)C(=O)c1ccccc1CS2=O (configuration not stated), the “activity change, negative = inhibition” value is reported as inactive: 12.6%. With COc1cc(C(=O)NCC(=O)NNC(=O)C2COc3ccccc3O2)cc(OC)c1OC (configuration not stated) the Potency was inconclusive: 13.1 µM [inhibitor, single point]. With CCCC(=O)Nc1cc(=O)[nH]c2ncnn12 the activity change, negative = inhibition was inactive: -0.952% [at 5.75 µM]. With CCN(CC)c1ccc(/C=C2/SC(=O)N(C(C)C)C2=O)o1 the Potency was inconclusive: 18.5 µM [inhibitor, single point]. With C#CCCOC(=O)N1C2=NC(C(=O)OC)=C(C(=O)OC)[C@@H]3N(C)c4ccccc4[C@]23C[C@H]1C(=O)OC the Potency was inconclusive: 18.5 µM [inhibitor, single point]. In the case of Cc1nn(C(C)C(=O)Nc2ccccc2Cl)c(=O)c2nn(-c3ccccc3)c(C)c12 (configuration not stated), the Potency is reported as active: 11.7 µM. With COc1cccc2sc(=NC(=O)CS(=O)(=O)c3ccc(F)cc3)n(C)c12 the “activity change, negative = inhibition” value was inactive: 29.3%. With CCOc1ccccc1NC(=S)N1CCN(c2ccc(O)cc2)CC1 the Potency was inconclusive: 13.1 µM [inhibitor, single point]. In the case of O=C(CSc1nc(-c2ccco2)cc(C(F)(F)F)n1)NCCc1ccccc1, the “activity change, negative = inhibition” value is reported as inactive: -13.4%. With COc1cc(NC(=O)c2cccc(C)c2)c(OC)cc1NC(=O)CN1CCCCC1 the “activity change, negative = inhibition” value was inactive: 19.5%. In the case of COc1ccc(NC(=O)C(=O)Nc2cccc3cccnc23)cc1OC, the Potency is reported as inconclusive: 16.5 µM [inhibitor, single point]. With Cc1onc(-c2ccccc2Cl)c1C(=O)Nc1nc2c(s1)CCCC2 the Potency was inconclusive: 0.0329 µM [inhibitor, full curve, poor fit]. With O=C(NCc1ccccc1)c1ccc2c(=O)n(CCCN3CCCC3=O)c(=S)[nH]c2c1 the Potency was inconclusive: 10.4 µM [inhibitor, single point]. For CCN(Cc1nc(-c2cccc(Cl)c2)no1)CC1CCCO1 (configuration not stated), the Potency was inconclusive: 2.62 µM [inhibitor, partial curve, poor fit].
